Assay results reported in the supplement of paper PMC10849652.
The list shows a part of the results.

Chains of the proteins cited; added tags and fusions are not shown. Lines headed by an entry give the natural chain unless they say otherwise; changes in a name come on top.
UniProt Q9UHQ4: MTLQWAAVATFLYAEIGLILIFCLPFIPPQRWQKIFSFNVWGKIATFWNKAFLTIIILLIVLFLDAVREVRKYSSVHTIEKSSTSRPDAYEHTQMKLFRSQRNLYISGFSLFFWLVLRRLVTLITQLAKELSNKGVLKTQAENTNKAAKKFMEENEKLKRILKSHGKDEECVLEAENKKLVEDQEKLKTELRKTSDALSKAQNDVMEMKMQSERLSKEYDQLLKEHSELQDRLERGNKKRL
UniProt O15392, whole entry, looked up: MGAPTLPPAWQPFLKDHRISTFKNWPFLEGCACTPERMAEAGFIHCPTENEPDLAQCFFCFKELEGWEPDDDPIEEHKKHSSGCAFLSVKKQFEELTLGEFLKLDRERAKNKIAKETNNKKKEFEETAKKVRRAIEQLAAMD
UniProt Q9UQB8: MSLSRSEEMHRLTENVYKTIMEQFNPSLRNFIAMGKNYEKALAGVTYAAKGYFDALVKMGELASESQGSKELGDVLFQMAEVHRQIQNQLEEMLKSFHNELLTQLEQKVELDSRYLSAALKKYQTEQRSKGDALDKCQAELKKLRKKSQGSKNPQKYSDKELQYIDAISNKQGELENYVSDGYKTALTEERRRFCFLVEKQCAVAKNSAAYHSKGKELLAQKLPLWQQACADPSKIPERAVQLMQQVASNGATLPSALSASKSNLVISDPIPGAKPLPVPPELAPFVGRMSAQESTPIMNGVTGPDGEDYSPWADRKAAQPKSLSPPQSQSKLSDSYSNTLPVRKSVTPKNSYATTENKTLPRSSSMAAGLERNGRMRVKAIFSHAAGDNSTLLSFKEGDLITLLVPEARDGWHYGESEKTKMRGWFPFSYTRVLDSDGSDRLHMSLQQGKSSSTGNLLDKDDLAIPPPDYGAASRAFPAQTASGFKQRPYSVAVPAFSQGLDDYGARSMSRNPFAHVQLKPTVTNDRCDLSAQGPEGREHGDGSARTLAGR
UniProt O14965: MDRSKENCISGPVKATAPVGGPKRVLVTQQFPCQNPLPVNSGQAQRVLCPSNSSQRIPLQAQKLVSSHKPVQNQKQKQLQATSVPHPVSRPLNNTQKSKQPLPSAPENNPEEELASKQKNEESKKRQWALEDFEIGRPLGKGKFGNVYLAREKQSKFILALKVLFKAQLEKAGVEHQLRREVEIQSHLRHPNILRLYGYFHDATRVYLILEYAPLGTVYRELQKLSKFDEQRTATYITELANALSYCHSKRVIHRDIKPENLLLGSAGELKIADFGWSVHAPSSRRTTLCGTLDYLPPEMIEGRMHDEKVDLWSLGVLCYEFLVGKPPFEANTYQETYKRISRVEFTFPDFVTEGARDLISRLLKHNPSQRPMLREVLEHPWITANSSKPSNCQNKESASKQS
UniProt Q9NYF8, whole entry, looked up: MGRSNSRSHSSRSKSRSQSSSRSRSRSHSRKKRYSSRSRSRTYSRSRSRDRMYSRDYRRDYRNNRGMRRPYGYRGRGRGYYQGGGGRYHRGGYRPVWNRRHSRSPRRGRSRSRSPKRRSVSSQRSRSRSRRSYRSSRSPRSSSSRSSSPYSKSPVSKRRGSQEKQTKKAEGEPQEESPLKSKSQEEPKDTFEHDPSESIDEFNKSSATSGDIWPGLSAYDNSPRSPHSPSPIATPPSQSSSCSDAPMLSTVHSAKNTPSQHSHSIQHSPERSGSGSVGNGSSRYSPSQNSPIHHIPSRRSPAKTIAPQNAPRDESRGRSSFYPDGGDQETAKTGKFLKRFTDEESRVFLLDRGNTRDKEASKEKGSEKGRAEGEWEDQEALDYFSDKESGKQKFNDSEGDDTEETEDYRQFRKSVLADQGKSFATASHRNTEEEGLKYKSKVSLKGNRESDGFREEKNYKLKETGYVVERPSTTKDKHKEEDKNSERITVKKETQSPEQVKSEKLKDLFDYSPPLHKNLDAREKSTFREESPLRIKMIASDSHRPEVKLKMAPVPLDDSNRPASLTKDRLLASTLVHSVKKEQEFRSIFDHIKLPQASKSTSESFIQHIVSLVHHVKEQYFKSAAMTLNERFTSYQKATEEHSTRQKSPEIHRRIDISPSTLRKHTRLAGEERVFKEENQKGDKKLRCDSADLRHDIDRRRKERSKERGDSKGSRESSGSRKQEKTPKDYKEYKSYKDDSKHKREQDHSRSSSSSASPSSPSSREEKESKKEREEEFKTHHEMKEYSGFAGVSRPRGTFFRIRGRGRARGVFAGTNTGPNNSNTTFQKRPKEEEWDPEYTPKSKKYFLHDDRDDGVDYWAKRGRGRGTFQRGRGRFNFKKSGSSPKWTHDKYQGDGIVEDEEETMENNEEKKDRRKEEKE

Key:
Assay in all cases: log2 fold change, soluble protein after heating vs DMSO (PISA); higher = thermal stabilisation; K562 cells, 10 uM, 30 min; active = over 0.2 and 3.5 SD of the protein, either way, in both replicates (recomputed)
[1] = compound: CC1=C(C=C(C=C1)NC(=O)C2=CC(=CC=C2)C(C)(C)C#N)NC3=CC4=C(C=C3)N=CN(C4=O)C
Outline: (§1)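 K562 cells at 2×10^6 cells/mL were given 10 μM compound for 30 min. Aliquots then went through 3 min of heating across 48°C-58°C, were pooled, and were extracted in PBS with 0.5% NP-40 at 4°C, and the supernatant after 21,000xg for 90 min was quantified by TMTpro 16plex LC-MS/MS with channel sums equalised. Thermal stability relative to control samples, from duplicates, is given as log2 fold change.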

[2] = compound: CC1=C(C=C(C=C1)NC(=O)C2=CC(=CC=C2)N(C)C)NC(=O)C3=CC=C(C=C3)O
Outline: as §1

[3] = compound: CC1=CC=C(C=C1)SC2=C3C=C(SC3=CN=C2)C(=O)N
Outline: as §1

[4] = compound: CC1=NC(=CC=C1)C2=C(N=C(N2)C(C)(C)C)C3=CC4=NC=CN=C4C=C3
Outline: as §1

[5] = compound: CCCCN(Cc1ccc(C(=O)NO)cc1)C(=O)Nc1ccccc1 [Nexturastat A]
Outline: as §1

[6] = compound: CCCS(=O)(=O)Nc1ccc(F)c(C(=O)c2c[nH]c3ncc(-c4ccc(Cl)cc4)cc23)c1F [vemurafenib]
Outline: as §1

[7] = compound: CCCS(=O)(=O)Nc1ccc(F)c(C(=O)c2c[nH]c3ncc(Cl)cc23)c1F
Outline: as §1

[8] = compound: CCCc1cc(C)[nH]c(=O)c1CNC(=O)c1cc(-c2ccnc(N3CCN(C)CC3)c2)cc2c1cnn2C(C)C
Outline: as §1

[9] = compound: CCN(CC)Cc1ccc2cc(COC(=O)Nc3ccc(C(=O)NO)cc3)ccc2c1 [givinostat]
Outline: as §1

[10] = compound: CCN(CCCOc1ccc2c(Nc3cc(CC(=O)Nc4cccc(F)c4)[nH]n3)ncnc2c1)CCOP(=O)(O)O [barasertib]
Outline: as §1

[11] = compound: CC[C@@H]1C(=O)N(C)c2cnc(Nc3ccc(C(=O)NC4CCN(C)CC4)cc3OC)nc2N1C1CCCC1
Outline: as §1

[12] = compound: CC[C@@H]1C(=O)N(C)c2cnc(Nc3ccc(C(=O)N[C@H]4CC[C@H](N5CCN(CC6CC6)CC5)CC4)cc3OC)nc2N1C(C)C [volasertib]
Outline: as §1

[13] = compound: CC[C@H](C)N1C=C(C2=C(C=C(C=C21)C3=CN=C(C=C3)N4CCNCC4)C(=O)NCC5=C(C=C(NC5=O)C)C)C
Outline: as §1

[14] = compound: CC[C@H](C)[C@@H](C(=O)N[C@@H]([C@@H](C)O)C(=O)N[C@@H](CC(C)C)C(=O)[C@]1(CO1)C)NC(=O)[C@H]([C@@H](C)CC)N(C)C(=O)C [epoxomicin]
Outline: as §1

[15] = compound: CCn1cc(-c2ccnc3[nH]c(-c4cccc(CN(C)C)c4)cc23)c(-c2ccc(NC(=O)N(C)C)cc2)n1
Outline: as §1

[16] = compound: CN(C)CC(=O)Nc1ccc2[nH]c(=O)c3ccccc3c2c1
Outline: as §1

[17] = compound: CN1C2=C(C3=C1C(=O)N(N=C3)CC4=CC(=CC=C4)N)SC(=C2)S(=O)C
Outline: as §1

[18] = compound: CN1CCC(CNc2ccc3ncc(-c4cccc(OC(F)(F)F)c4)n3n2)CC1
Outline: as §1

[19] = compound: CCn1c(C(=O)N(C2CC2)C2CC2)cc2c3c(ncn3C)c(Nc3cc(C)n(C)n3)nc21
Outline: as §1

[20] = compound: CN(CCOC1=CC=C(C=C1)C[C@H]2C(=O)NC(=O)S2)C3=CC=CC=N3 (racemic) [rosiglitazone]
Outline: as §1

Measured: log2 fold change

BCAP29 isoform 2 (UniProt Q9UHQ4)
inactive: [1] -0.078 | [2] 0.006 | [3] 0.015 | [4] 0.01 | [5] -0.032 | [6] -0.033 | [7] -0.036 | [8] -0.116 | [9] -0.075 | [10] 0.025 | [11] 0.022 | [12] 0.085 | [13] -0.072 | [14] -0.096 | [15] -0.011 | [16] -0.008 | [17] -0.044 | [18] 0.05

BIRC5 (UniProt O15392)
inactive: [1] -0.057 | [2] -0.04 | [3] 0.078 | [4] 0.04 | [5] 0.008 | [6] -0.024 | [7] 0.034 | [9] -0.054 | [10] -0.014 | [11] 0.072 | [12] 0.037 | [13] -0.058 | [14] 0.096 | [19] -0.011 | [16] -0.047 | [20] -0.022 | [17] 0.084

BAIAP2 (UniProt Q9UQB8)
inactive: [1] -0.019 | [2] 0.01 | [3] 0.007 | [4] -0.012 | [5] 0.041 | [6] 0.021 | [7] 0.068 | [8] 0.048 | [9] 0.029 | [10] 0.048 | [11] -0.045 | [12] -0.089 | [13] 0.082 | [14] 0.14 | [15] -0.05 | [16] -0.019 | [17] -0.015 | [18] -0.142

AURKA (UniProt O14965)
active: [15] 0.733
inactive: [1] -0.008 | [2] -0.041 | [3] -0.011 | [4] -0.036 | [5] 0.096 | [6] -0.026 | [7] 0.006 | [8] 0.01 | [9] 0.257 | [10] 0.114 | [11] 0.017 | [12] 0.134 | [13] -0.022 | [14] 0.113 | [16] 0 | [17] 0.029 | [18] 0.14

BCLAF1 (UniProt Q9NYF8)
inactive: [1] 0.012 | [2] -0.102 | [3] 0.004 | [4] 0.128 | [5] 0.098 | [6] 0.225 | [7] 0.097 | [8] 0.009 | [9] 0.137 | [10] -0.071 | [11] -0.089 | [12] -0.08 | [13] 0.024 | [14] -0.027 | [15] -0.002 | [16] 0.099 | [17] -0.015 | [18] 0.024
